According to the supplement of paper PMC11546906:
Where a name gives a salt, the structure may show the parent alone. The list shows a part of the results. This data set is noisy: repeats of one test often differ as much as different tests do.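 FDA-approved drugs were each paired with colistin at one-eighth its MIC and screened against a multidrug-resistant, mcr-1-positive clinical E. coli isolate, with OD600 read after 24 h. Drug-free bacteria served as growth control, plain broth as blank. Combinations were active if OD600 dropped below 0.2.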

These molecules were tested on Escherichia coli 42 (mcr-1-positive clinical isolate) (assay: OD600 after 24 h growth with compound plus colistin (absorbance units (OD600)); higher = more bacterial growth (less inhibition)). Conditions: first compound 25 µM; colistin concentration 0.5 ug/mL; incubation time 24 h; 37 °C.

Structure (SMILES) | OD600
C[C@]12C=CC(=O)C=C1CC[C@H]1[C@@H]3C[C@@H](O)[C@](O)(C(=O)CO)[C@@]3(C)C[C@H](O)[C@@]12F [Triamcinolone] + CCC(C)CCCC(=O)N[C@@H](CCN)C(=O)N[C@H](C(=O)N[C@@H](CCN)C(=O)N[C@H]1CCNC(=O)[C@H]([C@@H](C)O)NC(=O)[C@H](CCN)NC(=O)[C@H](CCN)NC(=O)[C@H](CC(C)C)NC(=O)[C@@H](CC(C)C)NC(=O)[C@H](CCN)NC1=O)[C@@H](C)O [colistin] | inactive: 1.01
C1CCN2C[C@@H]3C[C@@H](CN4CCCC[C@@H]34)[C@H]2C1 [(-)-Sparteine sulfate pentahydrate] + CCC(C)CCCC(=O)N[C@@H](CCN)C(=O)N[C@H](C(=O)N[C@@H](CCN)C(=O)N[C@H]1CCNC(=O)[C@H]([C@@H](C)O)NC(=O)[C@H](CCN)NC(=O)[C@H](CCN)NC(=O)[C@H](CC(C)C)NC(=O)[C@@H](CC(C)C)NC(=O)[C@H](CCN)NC1=O)[C@@H](C)O [colistin] | inactive: 0.875
CCCC(=O)OCOC(=O)C1=C(C)NC(C)=C(C(=O)OC)C1c1cccc(Cl)c1Cl (centres undefined) [Clevidipine] + CCC(C)CCCC(=O)N[C@@H](CCN)C(=O)N[C@H](C(=O)N[C@@H](CCN)C(=O)N[C@H]1CCNC(=O)[C@H]([C@@H](C)O)NC(=O)[C@H](CCN)NC(=O)[C@H](CCN)NC(=O)[C@H](CC(C)C)NC(=O)[C@@H](CC(C)C)NC(=O)[C@H](CCN)NC1=O)[C@@H](C)O [colistin] | inactive: 1.08
CCOc1nc2cccc(C(=O)O)c2n1Cc1ccc(-c2ccccc2-c2noc(=O)[nH]2)cc1 [Azilsartan] + CCC(C)CCCC(=O)N[C@@H](CCN)C(=O)N[C@H](C(=O)N[C@@H](CCN)C(=O)N[C@H]1CCNC(=O)[C@H]([C@@H](C)O)NC(=O)[C@H](CCN)NC(=O)[C@H](CCN)NC(=O)[C@H](CC(C)C)NC(=O)[C@@H](CC(C)C)NC(=O)[C@H](CCN)NC1=O)[C@@H](C)O [colistin] | inactive: 1.16
CC(C)(C)NCC(O)COc1cccc2c1CC(O)C(O)C2 (centres undefined) [Nadolol] + CCC(C)CCCC(=O)N[C@@H](CCN)C(=O)N[C@H](C(=O)N[C@@H](CCN)C(=O)N[C@H]1CCNC(=O)[C@H]([C@@H](C)O)NC(=O)[C@H](CCN)NC(=O)[C@H](CCN)NC(=O)[C@H](CC(C)C)NC(=O)[C@@H](CC(C)C)NC(=O)[C@H](CCN)NC1=O)[C@@H](C)O [colistin] | inactive: 0.84
Oc1ccc(OCc2ccccc2)cc1 [Monobenzone] + CCC(C)CCCC(=O)N[C@@H](CCN)C(=O)N[C@H](C(=O)N[C@@H](CCN)C(=O)N[C@H]1CCNC(=O)[C@H]([C@@H](C)O)NC(=O)[C@H](CCN)NC(=O)[C@H](CCN)NC(=O)[C@H](CC(C)C)NC(=O)[C@@H](CC(C)C)NC(=O)[C@H](CCN)NC1=O)[C@@H](C)O [colistin] | inactive: 1
O=[Si]=O [Sodium montmorillonite] + CCC(C)CCCC(=O)N[C@@H](CCN)C(=O)N[C@H](C(=O)N[C@@H](CCN)C(=O)N[C@H]1CCNC(=O)[C@H]([C@@H](C)O)NC(=O)[C@H](CCN)NC(=O)[C@H](CCN)NC(=O)[C@H](CC(C)C)NC(=O)[C@@H](CC(C)C)NC(=O)[C@H](CCN)NC1=O)[C@@H](C)O [colistin] | inactive: 1.07
Clc1ccc(CO/N=C(\Cn2ccnc2)c2ccc(Cl)cc2Cl)c(Cl)c1 [Oxiconazole nitrate] + CCC(C)CCCC(=O)N[C@@H](CCN)C(=O)N[C@H](C(=O)N[C@@H](CCN)C(=O)N[C@H]1CCNC(=O)[C@H]([C@@H](C)O)NC(=O)[C@H](CCN)NC(=O)[C@H](CCN)NC(=O)[C@H](CC(C)C)NC(=O)[C@@H](CC(C)C)NC(=O)[C@H](CCN)NC1=O)[C@@H](C)O [colistin] | active: 0.044
O=C(c1cc(Cc2n[nH]c(=O)c3ccccc23)ccc1F)N1CCN(C(=O)C2CC2)CC1 [Olaparib] + CCC(C)CCCC(=O)N[C@@H](CCN)C(=O)N[C@H](C(=O)N[C@@H](CCN)C(=O)N[C@H]1CCNC(=O)[C@H]([C@@H](C)O)NC(=O)[C@H](CCN)NC(=O)[C@H](CCN)NC(=O)[C@H](CC(C)C)NC(=O)[C@@H](CC(C)C)NC(=O)[C@H](CCN)NC1=O)[C@@H](C)O [colistin] | inactive: 1.17
C=CC1=C(C(=O)O)N2C(=O)[C@@H](NC(=O)/C(=N\OCC(=O)O)c3csc(N)n3)[C@H]2SC1 [Cefixime] + CCC(C)CCCC(=O)N[C@@H](CCN)C(=O)N[C@H](C(=O)N[C@@H](CCN)C(=O)N[C@H]1CCNC(=O)[C@H]([C@@H](C)O)NC(=O)[C@H](CCN)NC(=O)[C@H](CCN)NC(=O)[C@H](CC(C)C)NC(=O)[C@@H](CC(C)C)NC(=O)[C@H](CCN)NC1=O)[C@@H](C)O [colistin] | active: 0.037
CCCN(CCC)CCc1cccc2c1CC(=O)N2 [Ropinirole hydrochloride] + CCC(C)CCCC(=O)N[C@@H](CCN)C(=O)N[C@H](C(=O)N[C@@H](CCN)C(=O)N[C@H]1CCNC(=O)[C@H]([C@@H](C)O)NC(=O)[C@H](CCN)NC(=O)[C@H](CCN)NC(=O)[C@H](CC(C)C)NC(=O)[C@@H](CC(C)C)NC(=O)[C@H](CCN)NC1=O)[C@@H](C)O [colistin] | inactive: 1.04
Clc1ccccc1C(c1ccccc1)(c1ccccc1)n1ccnc1 [Clotrimazole] + CCC(C)CCCC(=O)N[C@@H](CCN)C(=O)N[C@H](C(=O)N[C@@H](CCN)C(=O)N[C@H]1CCNC(=O)[C@H]([C@@H](C)O)NC(=O)[C@H](CCN)NC(=O)[C@H](CCN)NC(=O)[C@H](CC(C)C)NC(=O)[C@@H](CC(C)C)NC(=O)[C@H](CCN)NC1=O)[C@@H](C)O [colistin] | active: 0.052
CN1CCN(C2=Nc3cc(Cl)ccc3Nc3ccccc32)CC1 [Clozapine] + CCC(C)CCCC(=O)N[C@@H](CCN)C(=O)N[C@H](C(=O)N[C@@H](CCN)C(=O)N[C@H]1CCNC(=O)[C@H]([C@@H](C)O)NC(=O)[C@H](CCN)NC(=O)[C@H](CCN)NC(=O)[C@H](CC(C)C)NC(=O)[C@@H](CC(C)C)NC(=O)[C@H](CCN)NC1=O)[C@@H](C)O [colistin] | inactive: 1.07
CC(C)(C)C(=O)OCOP(=O)(COCCn1cnc2c(N)ncnc21)OCOC(=O)C(C)(C)C [Adefovir dipivoxil] + CCC(C)CCCC(=O)N[C@@H](CCN)C(=O)N[C@H](C(=O)N[C@@H](CCN)C(=O)N[C@H]1CCNC(=O)[C@H]([C@@H](C)O)NC(=O)[C@H](CCN)NC(=O)[C@H](CCN)NC(=O)[C@H](CC(C)C)NC(=O)[C@@H](CC(C)C)NC(=O)[C@H](CCN)NC1=O)[C@@H](C)O [colistin] | inactive: 1.09
CC(C)[N+](C)(CCOC(=O)C1c2ccccc2Oc2ccccc21)C(C)C [Propantheline bromide] + CCC(C)CCCC(=O)N[C@@H](CCN)C(=O)N[C@H](C(=O)N[C@@H](CCN)C(=O)N[C@H]1CCNC(=O)[C@H]([C@@H](C)O)NC(=O)[C@H](CCN)NC(=O)[C@H](CCN)NC(=O)[C@H](CC(C)C)NC(=O)[C@@H](CC(C)C)NC(=O)[C@H](CCN)NC1=O)[C@@H](C)O [colistin] | inactive: 0.983
COCCCOc1cc(C[C@@H](C[C@H](N)[C@@H](O)C[C@H](C(=O)NCC(C)(C)C(N)=O)C(C)C)C(C)C)ccc1OC [Aliskiren hemifumarate] + CCC(C)CCCC(=O)N[C@@H](CCN)C(=O)N[C@H](C(=O)N[C@@H](CCN)C(=O)N[C@H]1CCNC(=O)[C@H]([C@@H](C)O)NC(=O)[C@H](CCN)NC(=O)[C@H](CCN)NC(=O)[C@H](CC(C)C)NC(=O)[C@@H](CC(C)C)NC(=O)[C@H](CCN)NC1=O)[C@@H](C)O [colistin] | inactive: 0.93
CCn1cc(C(=O)O)c(=O)c2cc(F)c(N3CCNCC3)nc21 [Enoxacin hydrate] + CCC(C)CCCC(=O)N[C@@H](CCN)C(=O)N[C@H](C(=O)N[C@@H](CCN)C(=O)N[C@H]1CCNC(=O)[C@H]([C@@H](C)O)NC(=O)[C@H](CCN)NC(=O)[C@H](CCN)NC(=O)[C@H](CC(C)C)NC(=O)[C@@H](CC(C)C)NC(=O)[C@H](CCN)NC1=O)[C@@H](C)O [colistin] | inactive: 0.924
CC(=O)[C@H]1CC[C@H]2[C@@H]3C[C@H](C)C4=CC(=O)CC[C@]4(C)[C@H]3[C@@H](O)C[C@]12C [Medrysone] + CCC(C)CCCC(=O)N[C@@H](CCN)C(=O)N[C@H](C(=O)N[C@@H](CCN)C(=O)N[C@H]1CCNC(=O)[C@H]([C@@H](C)O)NC(=O)[C@H](CCN)NC(=O)[C@H](CCN)NC(=O)[C@H](CC(C)C)NC(=O)[C@@H](CC(C)C)NC(=O)[C@H](CCN)NC1=O)[C@@H](C)O [colistin] | inactive: 1.26
CSc1ccc(OCc2ncc([N+](=O)[O-])n2C)cc1 [Fexinidazole] + CCC(C)CCCC(=O)N[C@@H](CCN)C(=O)N[C@H](C(=O)N[C@@H](CCN)C(=O)N[C@H]1CCNC(=O)[C@H]([C@@H](C)O)NC(=O)[C@H](CCN)NC(=O)[C@H](CCN)NC(=O)[C@H](CC(C)C)NC(=O)[C@@H](CC(C)C)NC(=O)[C@H](CCN)NC1=O)[C@@H](C)O [colistin] | inactive: 0.975

Exported in markdown: part of the list above

| Structure (SMILES) | OD600 |
| --- | --- |
| CC(C)(C)NCC(O)COc1cccc2c1CC(O)C(O)C2 (centres undefined) [Nadolol] + CCC(C)CCCC(=O)N[C@@H](CCN)C(=O)N[C@H](C(=O)N[C@@H](CCN)C(=O)N[C@H]1CCNC(=O)[C@H]([C@@H](C)O)NC(=O)[C@H](CCN)NC(=O)[C@H](CCN)NC(=O)[C@H](CC(C)C)NC(=O)[C@@H](CC(C)C)NC(=O)[C@H](CCN)NC1=O)[C@@H](C)O [colistin] | inactive: 0.84 |
| COCCCOc1cc(C[C@@H](C[C@H](N)[C@@H](O)C[C@H](C(=O)NCC(C)(C)C(N)=O)C(C)C)C(C)C)ccc1OC [Aliskiren hemifumarate] + CCC(C)CCCC(=O)N[C@@H](CCN)C(=O)N[C@H](C(=O)N[C@@H](CCN)C(=O)N[C@H]1CCNC(=O)[C@H]([C@@H](C)O)NC(=O)[C@H](CCN)NC(=O)[C@H](CCN)NC(=O)[C@H](CC(C)C)NC(=O)[C@@H](CC(C)C)NC(=O)[C@H](CCN)NC1=O)[C@@H](C)O [colistin] | inactive: 0.93 |
